No constants are given. Whether binding was seen depends on the method and setting. In cells and extracts the contact can be indirect. These calls come from enrichment with a bait or labelling near it, and not all partners need be listed.
Biological target: endogenous full-length Sec16 (human (endogenous in HeLa)) (UniProt O15027)
Experiment: affinity purification with mass spectrometry

The chains behind the UniProt entries cited, without tags or fusion partners.
UniProt O15027: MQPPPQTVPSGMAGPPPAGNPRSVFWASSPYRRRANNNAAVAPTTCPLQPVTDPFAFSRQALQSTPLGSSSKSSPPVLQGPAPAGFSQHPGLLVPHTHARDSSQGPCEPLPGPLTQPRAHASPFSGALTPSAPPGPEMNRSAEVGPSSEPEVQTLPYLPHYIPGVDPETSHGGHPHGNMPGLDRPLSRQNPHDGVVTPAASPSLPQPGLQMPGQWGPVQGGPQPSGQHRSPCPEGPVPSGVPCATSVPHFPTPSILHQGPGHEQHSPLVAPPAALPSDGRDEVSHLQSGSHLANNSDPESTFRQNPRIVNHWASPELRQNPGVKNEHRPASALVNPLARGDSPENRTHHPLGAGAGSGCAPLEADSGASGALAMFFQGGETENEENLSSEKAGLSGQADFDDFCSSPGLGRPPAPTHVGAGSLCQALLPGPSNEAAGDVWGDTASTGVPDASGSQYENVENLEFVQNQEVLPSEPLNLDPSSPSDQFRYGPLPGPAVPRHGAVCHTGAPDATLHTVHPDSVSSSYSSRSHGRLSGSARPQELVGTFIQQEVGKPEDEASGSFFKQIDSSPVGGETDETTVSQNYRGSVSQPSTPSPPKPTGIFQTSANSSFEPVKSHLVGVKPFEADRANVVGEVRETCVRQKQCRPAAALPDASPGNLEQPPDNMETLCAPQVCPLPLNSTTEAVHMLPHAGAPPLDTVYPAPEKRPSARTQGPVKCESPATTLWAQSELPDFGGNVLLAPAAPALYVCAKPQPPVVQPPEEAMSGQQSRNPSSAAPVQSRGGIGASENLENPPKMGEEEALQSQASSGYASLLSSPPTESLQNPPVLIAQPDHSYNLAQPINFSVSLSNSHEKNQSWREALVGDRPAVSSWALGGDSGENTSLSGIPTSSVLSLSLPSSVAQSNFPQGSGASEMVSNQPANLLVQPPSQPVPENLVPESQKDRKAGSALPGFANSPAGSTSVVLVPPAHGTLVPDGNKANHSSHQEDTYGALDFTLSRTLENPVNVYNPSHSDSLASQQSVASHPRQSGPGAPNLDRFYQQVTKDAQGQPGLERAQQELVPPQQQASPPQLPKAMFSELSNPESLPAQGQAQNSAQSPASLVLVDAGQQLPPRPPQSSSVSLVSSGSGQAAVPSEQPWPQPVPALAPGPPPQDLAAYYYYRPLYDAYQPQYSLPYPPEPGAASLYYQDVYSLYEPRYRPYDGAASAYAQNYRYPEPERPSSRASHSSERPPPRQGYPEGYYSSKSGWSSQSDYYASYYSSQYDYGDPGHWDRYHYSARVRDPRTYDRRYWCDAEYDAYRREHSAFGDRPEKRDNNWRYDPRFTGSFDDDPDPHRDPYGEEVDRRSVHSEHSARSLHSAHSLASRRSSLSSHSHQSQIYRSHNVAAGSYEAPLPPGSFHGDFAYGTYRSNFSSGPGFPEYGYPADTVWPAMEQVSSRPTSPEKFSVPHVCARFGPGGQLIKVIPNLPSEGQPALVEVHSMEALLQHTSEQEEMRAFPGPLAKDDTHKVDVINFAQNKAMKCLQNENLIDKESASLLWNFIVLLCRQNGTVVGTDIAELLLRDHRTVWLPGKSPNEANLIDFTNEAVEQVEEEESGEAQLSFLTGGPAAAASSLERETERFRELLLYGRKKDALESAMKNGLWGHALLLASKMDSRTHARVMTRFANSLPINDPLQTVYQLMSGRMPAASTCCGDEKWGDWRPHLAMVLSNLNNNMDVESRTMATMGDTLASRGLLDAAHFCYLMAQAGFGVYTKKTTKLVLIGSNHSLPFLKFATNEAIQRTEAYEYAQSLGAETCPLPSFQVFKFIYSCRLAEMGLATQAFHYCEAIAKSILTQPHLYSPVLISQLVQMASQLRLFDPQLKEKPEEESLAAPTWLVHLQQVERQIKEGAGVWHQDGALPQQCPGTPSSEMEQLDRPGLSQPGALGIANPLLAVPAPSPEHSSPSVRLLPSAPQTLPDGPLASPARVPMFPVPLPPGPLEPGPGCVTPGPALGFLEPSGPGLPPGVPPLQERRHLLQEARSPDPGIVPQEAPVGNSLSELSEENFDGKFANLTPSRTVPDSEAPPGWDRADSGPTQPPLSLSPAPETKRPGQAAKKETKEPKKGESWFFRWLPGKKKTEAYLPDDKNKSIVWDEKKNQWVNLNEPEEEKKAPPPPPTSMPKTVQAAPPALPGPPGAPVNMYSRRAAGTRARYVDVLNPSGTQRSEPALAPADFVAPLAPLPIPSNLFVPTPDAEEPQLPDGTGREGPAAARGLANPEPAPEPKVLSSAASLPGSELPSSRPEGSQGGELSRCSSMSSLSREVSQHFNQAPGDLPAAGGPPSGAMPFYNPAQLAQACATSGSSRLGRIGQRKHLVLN
UniProt Q15436: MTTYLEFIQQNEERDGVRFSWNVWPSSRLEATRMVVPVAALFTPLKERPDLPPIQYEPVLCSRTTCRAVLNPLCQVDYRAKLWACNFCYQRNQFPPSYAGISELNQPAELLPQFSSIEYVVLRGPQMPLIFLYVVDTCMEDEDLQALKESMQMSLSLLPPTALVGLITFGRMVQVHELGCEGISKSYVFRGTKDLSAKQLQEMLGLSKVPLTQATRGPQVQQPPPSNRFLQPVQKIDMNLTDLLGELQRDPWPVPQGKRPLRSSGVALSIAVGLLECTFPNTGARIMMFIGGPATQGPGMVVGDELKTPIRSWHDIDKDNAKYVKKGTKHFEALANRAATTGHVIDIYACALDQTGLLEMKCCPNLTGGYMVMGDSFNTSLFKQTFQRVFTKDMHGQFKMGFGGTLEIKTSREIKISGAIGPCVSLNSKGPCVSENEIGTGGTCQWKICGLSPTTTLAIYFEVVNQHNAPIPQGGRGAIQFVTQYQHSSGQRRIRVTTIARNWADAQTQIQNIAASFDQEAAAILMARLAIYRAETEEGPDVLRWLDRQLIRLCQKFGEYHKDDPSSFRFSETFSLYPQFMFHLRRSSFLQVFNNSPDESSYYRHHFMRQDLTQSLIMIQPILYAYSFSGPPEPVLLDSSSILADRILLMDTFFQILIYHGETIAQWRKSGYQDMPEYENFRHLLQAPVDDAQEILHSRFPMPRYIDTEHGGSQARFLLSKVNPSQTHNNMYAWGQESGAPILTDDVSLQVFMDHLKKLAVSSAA

Sec23A (from UniProt Q15436 1-765) was tested, and the binding was “binds”.
